Source: PubChem BioAssay AID1487 (National Center for Advancing Translational Sciences (NCATS), 2009)
The other results are listed elsewhere or left out. The main result of the screen is listed elsewhere. These columns were measured beside it and carry no call. Compounds called inactive in the main read-out are mostly missing here. The note in brackets gives the kind of curve behind each potency; many fits are weak.

Assay: qHTS Assay for Modulators of Lamin A Splicing
Conditions: HeLa LMNA splicing GFP/RFP minigene ratio, 48 h
In short: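 Read-out is the ratio of GFP to DsRed2 object intensity, acquired by 488 nm laser-scanning cytometry on HeLa lamin A-EGFP minigene reporter cells. Compound incubation 48 hrs at 37 °C in Opti-MEM with 2% FBS; DMSO 0.5% final.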

[1] = measured here: GFP splicing reporter channel
[2] = measured here: RFP viability control channel

Cn1c(N)c(C#N)c(C#N)c1-c1ccccc1
AC50 [1]: 0.447 µM [rising, full curve] | AC50 [2]: 0.447 µM [rising, full curve]

COc1cccc(CNC(=O)C2CCCN(S(=O)(=O)c3cn(C)cn3)C2)c1 (stereo unspecified)
AC50 [1]: 2.24 µM [falling, partial curve, poor fit] | AC50 [2]: 35.5 µM [falling, partial curve, poor fit]

N#Cc1c(SCC(N)=O)nc(-c2ccccc2)c2c1CCCC2
AC50 [1]: 15.8 µM [rising, partial curve, poor fit]

Cc1ccc(C(=O)c2cc(C)sc2NC(=O)CN2CCN(C(=O)c3ccco3)CC2)cc1
AC50 [1]: 17.8 µM [rising, single point] | AC50 [2]: 35.5 µM [rising, single point]

O=C(CSCc1ccccc1Br)N/N=C/c1ccc2c(c1)OCO2
AC50 [2]: 22.4 µM [rising, single point]

Cc1ccc(NC(=O)C(C)c2ccc(-c3ccccc3)c(F)c2)cc1 (stereo unspecified)
AC50 [2]: 3.55 µM [rising, single point]

Cc1ccc(-c2nc3ccccc3s2)cc1S(=O)(=O)N1CCOCC1
AC50 [2]: 14.1 µM [rising, single point]

CCN1C/C(=C/c2cccc([N+](=O)[O-])c2)C(=O)/C(=C/c2cccc([N+](=O)[O-])c2)C1
AC50 [2]: 35.5 µM [falling, single point]

CC(C)c1ccc(NC(=O)CSC2=Nc3ccccc3C3=NC(CC(=O)NCCc4ccccc4)C(=O)N23)cc1 (stereo unspecified)
AC50 [1]: 35.5 µM [rising, single point] | AC50 [2]: 31.6 µM [rising, single point]

Cc1nc2ccc(NC(=O)c3ccc(Cl)c(S(=O)(=O)N(C)c4ccccc4)c3)cc2s1
AC50 [1]: 2.82 µM [rising, full curve, poor fit] | AC50 [2]: 3.98 µM [rising, full curve]

CC(c1ccccc1)N(NC(=O)C(O)(c1ccccc1)c1ccccc1)C(=O)c1ccccc1 (stereo unspecified)
AC50 [2]: 5.62 µM [falling, single point]

Cn1c(NC(=O)/C=C/c2ccccc2)cc(=O)n(C)c1=O
AC50 [2]: 35.5 µM [rising, single point]

Cc1c(NC(=O)c2nn3c(C(F)(F)F)cc(-c4ccccc4)nc3c2Br)c(=O)n(-c2ccccc2)n1C
AC50 [1]: 7.08 µM [rising, partial curve, poor fit]

Cc1ccccc1C(=O)Nc1ccc2nc(SCC(=O)N(C)c3ccccc3)sc2c1
AC50 [1]: 2.82 µM [rising, full curve, poor fit]

CCOc1ccccc1Nc1nnc(SCC(=O)Nc2cc(C)on2)s1
AC50 [1]: 0.112 µM [rising, full curve] | AC50 [2]: 0.141 µM [rising, full curve]
